Test results: patent publication US20220228203
For at least one entry, the source does not settle the construct or the ends of the probe.

The chains behind the UniProt entries cited, without tags or fusion partners. Where a name states a change or a piece, a line headed by the entry shows the natural chain unless it says otherwise.
UniProt Q46731: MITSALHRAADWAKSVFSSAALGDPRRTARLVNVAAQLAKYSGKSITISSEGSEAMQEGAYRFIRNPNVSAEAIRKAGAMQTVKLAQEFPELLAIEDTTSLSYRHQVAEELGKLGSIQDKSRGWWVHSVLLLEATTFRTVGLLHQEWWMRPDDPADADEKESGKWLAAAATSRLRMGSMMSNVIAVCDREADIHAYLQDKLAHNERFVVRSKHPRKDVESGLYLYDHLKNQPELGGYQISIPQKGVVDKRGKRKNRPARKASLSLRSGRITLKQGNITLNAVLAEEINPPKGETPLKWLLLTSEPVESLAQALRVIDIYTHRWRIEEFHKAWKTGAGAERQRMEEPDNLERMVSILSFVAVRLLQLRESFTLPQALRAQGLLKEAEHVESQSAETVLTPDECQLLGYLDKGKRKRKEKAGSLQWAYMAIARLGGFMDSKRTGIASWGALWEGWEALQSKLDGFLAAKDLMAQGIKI

Target: Protein A-Tn5 transposase fusion (pA-Tn5, hyperactive Tn5) (UniProt Q46731)
Assay: activity assay
Settings: 5'-phosphate on mosaic end reverse; loaded transposome tagments chromatin in permeabilized K562 cells; Mg2+, 37 C; purified recombinant protein; protein details: Protein A fusion

Sequence	activity on this sequence
TCGTCGGCAGCGTCAGATGTGTATAAGAGACAG / CTGTCTCTTATACACATCT [Mosaic end adapter A / mosaic end reverse]	active
GTCTCGTGGGCTCGGAGATGTGTATAAGAGACAG / CTGTCTCTTATACACATCT [Mosaic end adapter B / mosaic end reverse]	active
